PubChem BioAssay AID1259254 | NCATS | 2017

Purpose: 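Genome-wide screen for genes that prevent DNA re-replication in cancer cells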 (primary screen)
Cell system: human HCT116 colorectal cancer cells
Knock-down reagent: single siRNA against human genes
Duration: 3 days
Measurement: 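Nuclei stained with Hoechst and imaged; cell-cycle phase assigned by DNA content; G2 share scaled per plate, non-targeting siRNA 0%, GMNN siRNA 100%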
Reading the numbers: G2 robust z-score and G2 cells, % of GMNN control: higher = more G2 cells, more excess DNA replication; raw share of cells in G2: higher = larger share of cells with G2 DNA content
Active means: 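An siRNA counts as active if its G2 robust z-score lies at least 5 MADs above the screen median; here such calls match roughly 38% of GMNN control or more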
In all, the deposit lists about 59,000 reagents; this is an unselected part. In the full data, about 1,550 (2.6%) got an active call. 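G2 share is only a proxy for re-replication; each gene was hit by three separate siRNAs, and active genes were retested.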 Raw values are not corrected between plates. Entries without a mark were called inactive. Not given: the amount of reagent.

| gene | PubChem SID | G2 robust z-score | G2 cells, % of GMNN control | raw share of cells in G2 (%) |
| --- | --- | --- | --- | --- |
| TAF7L (TATA-box binding protein associated factor 7 like) | SID160741707 | 0.0641 | 3.42 | 4 |
| TAF7L (TATA-box binding protein associated factor 7 like) | SID160741708 | 4.18 | 32.4 | 20.5 |
| TAF7L (TATA-box binding protein associated factor 7 like) | SID160741709 | -0.94 | -3.65 | 2.49 |
| KIR2DL4 | SID160776286 | -0.438 | -0.115 | 5 |
| KIR2DL4 | SID160776287 | -1.42 | -6.99 | 3.02 |
| KIR2DL4 | SID160776288 | 4.36 | 33.6 | 16.5 |
| ZNF322 (zinc finger protein 322) | SID160724549 | 0.399 | 5.77 | 5.45 |
| ZNF322 (zinc finger protein 322) | SID160731925 | -0.527 | -0.744 | 5.57 |
| ZNF322 (zinc finger protein 322) | SID160749205 | 1.6 | 14.2 | 7.8 |
| PSMA6P2 (proteasome subunit alpha 6 pseudogene 2) | SID160734533 | 1.6 | 14.2 | 8.37 |
| PSMA6P2 (proteasome subunit alpha 6 pseudogene 2) | SID160772731 | 0.19 | 4.3 | 5.78 |
| PSMA6P2 (proteasome subunit alpha 6 pseudogene 2) | SID160772732 | -0.18 | 1.7 | 3.79 |
| SPC25 (SPC25 component of NDC80 kinetochore complex) | SID160733666 | -0.518 | -0.678 | 2.81 |
| SPC25 (SPC25 component of NDC80 kinetochore complex) | SID160745936 | 0.514 | 6.59 | 6.94 |
| SPC25 (SPC25 component of NDC80 kinetochore complex) | SID160745940 | 0.718 | 8.02 | 8.29 |
| GABRR1 (gamma-aminobutyric acid type A receptor subunit rho1) | SID160768726 | -0.968 | -3.84 | 3.89 |
| GABRR1 (gamma-aminobutyric acid type A receptor subunit rho1) | SID160768735 | -0.318 | 0.731 | 5.03 |
| GABRR1 (gamma-aminobutyric acid type A receptor subunit rho1) | SID160768742 | 1.62 | 14.4 | 9.98 |
| ORAI3 (ORAI calcium release-activated calcium modulator 3) | SID160754438 | 2.28 | 19 | 12.2 |
| ORAI3 (ORAI calcium release-activated calcium modulator 3) | SID160754439 | -0.541 | -0.842 | 2.74 |
| ORAI3 (ORAI calcium release-activated calcium modulator 3) | SID160754441 | 0.477 | 6.32 | 4.93 |
| TNNI3K (TNNI3 interacting kinase) | SID160740011 | 0.78 | 8.46 | 8.22 |
| TNNI3K (TNNI3 interacting kinase) | SID160740013 | -1.03 | -4.25 | 3.65 |
| TNNI3K (TNNI3 interacting kinase) | SID160740014 | -0.431 | -0.0661 | 3.66 |
| SRSF8 (serine and arginine rich splicing factor 8) | SID160729546 | -0.303 | 0.839 | 6.06 |
| SRSF8 (serine and arginine rich splicing factor 8) | SID160729547 | -0.0562 | 2.57 | 4.67 |
| SRSF8 (serine and arginine rich splicing factor 8) | SID160729548 | -0.0402 | 2.68 | 7.54 |
| ZNF843 (zinc finger protein 843) | SID160732952 | -0.396 | 0.183 | 3.32 |
| ZNF843 (zinc finger protein 843) | SID160763083 | -0.119 | 2.13 | 4.42 |
| ZNF843 (zinc finger protein 843) | SID160763084 | -0.422 | -0.00277 | 3.04 |
| FUBP3 (far upstream element binding protein 3) | SID160721179 | -0.351 | 0.495 | 4.88 |
| FUBP3 (far upstream element binding protein 3) | SID160721180 | -0.707 | -2.01 | 4.56 |
| FUBP3 (far upstream element binding protein 3) | SID160721181 | 0.158 | 4.08 | 6.39 |
| ZNF669 (zinc finger protein 669) | SID160749629 | -0.465 | -0.304 | 2.68 |
| ZNF669 (zinc finger protein 669) | SID160749630 | 2.39 | 19.8 | 14.8 |
| ZNF669 (zinc finger protein 669) | SID160749631 | -1.12 | -4.9 | 2.09 |
| H2BC17 (H2B clustered histone 17) | SID160719886 | -0.872 | -3.17 | 3.57 |
| H2BC17 (H2B clustered histone 17) | SID160724154 | -0.528 | -0.75 | 4.2 |
| H2BC17 (H2B clustered histone 17) | SID160731990 | -0.521 | -0.696 | 5.02 |

Continued (3 carried over from the part before).
| gene | PubChem SID | G2 robust z-score | G2 cells, % of GMNN control | raw share of cells in G2 (%) |
| --- | --- | --- | --- | --- |
| H2BC17 (H2B clustered histone 17) | SID160719886 | -0.872 | -3.17 | 3.57 |
| H2BC17 (H2B clustered histone 17) | SID160724154 | -0.528 | -0.75 | 4.2 |
| H2BC17 (H2B clustered histone 17) | SID160731990 | -0.521 | -0.696 | 5.02 |
| GPR132 (G protein-coupled receptor 132) | SID160739331 | -1.19 | -5.37 | 3.92 |
| GPR132 (G protein-coupled receptor 132) | SID160739332 | 0.306 | 5.12 | 6.31 |
| GPR132 (G protein-coupled receptor 132) | SID160739333 | 6.93 (active) | 51.7 | 19.1 |
| GOT1 (glutamic-oxaloacetic transaminase 1) | SID160730991 | -0.843 | -2.96 | 4.16 |
| GOT1 (glutamic-oxaloacetic transaminase 1) | SID160772581 | 0.338 | 5.35 | 5.56 |
| GOT1 (glutamic-oxaloacetic transaminase 1) | SID160772598 | 0.943 | 9.6 | 8.91 |
| FAT2 (FAT atypical cadherin 2) | SID160764050 | -0.604 | -1.28 | 4.78 |
| FAT2 (FAT atypical cadherin 2) | SID160764061 | -0.532 | -0.777 | 3.38 |
| FAT2 (FAT atypical cadherin 2) | SID160764072 | -0.993 | -4.02 | 3.78 |
| ALCAM (activated leukocyte cell adhesion molecule) | SID160716177 | -0.0599 | 2.55 | 5.59 |
| ALCAM (activated leukocyte cell adhesion molecule) | SID160716186 | -0.774 | -2.48 | 4.19 |
| ALCAM (activated leukocyte cell adhesion molecule) | SID160716196 | 2.24 | 18.7 | 11 |
| ONECUT1 (one cut homeobox 1) | SID160775105 | -0.659 | -1.67 | 3.59 |
| ONECUT1 (one cut homeobox 1) | SID160775106 | 2.49 | 20.5 | 13.5 |
| ONECUT1 (one cut homeobox 1) | SID160775107 | -0.969 | -3.85 | 3.65 |
| QTMAN (queuosine-tRNA mannosyltransferase) | SID160749255 | 0.233 | 4.61 | 6.49 |
| QTMAN (queuosine-tRNA mannosyltransferase) | SID160749256 | -0.854 | -3.04 | 3.09 |
| QTMAN (queuosine-tRNA mannosyltransferase) | SID160749257 | 0.0933 | 3.62 | 6.94 |
| CDC42BPA (CDC42 binding protein kinase alpha) | SID160720120 | 1.55 | 13.9 | 9.9 |
| CDC42BPA (CDC42 binding protein kinase alpha) | SID160720121 | 0.759 | 8.31 | 8.21 |
| CDC42BPA (CDC42 binding protein kinase alpha) | SID160720122 | 0.897 | 9.28 | 6.65 |
| SLC10A4 | SID160761019 | -0.216 | 1.45 | 5.23 |
| SLC10A4 | SID160761020 | -0.126 | 2.08 | 5.58 |
| SLC10A4 | SID160761023 | -0.574 | -1.07 | 5.45 |
| DLGAP1-AS5 (DLGAP1 antisense RNA 5) | SID160732965 | -0.885 | -3.26 | 2.28 |
| DLGAP1-AS5 (DLGAP1 antisense RNA 5) | SID160763213 | 0.101 | 3.67 | 4.98 |
| DLGAP1-AS5 (DLGAP1 antisense RNA 5) | SID160763215 | 1.83 | 15.8 | 9.17 |
| ACTL9 (actin like 9) | SID160763297 | -0.395 | 0.187 | 3.71 |
| ACTL9 (actin like 9) | SID160763298 | -0.263 | 1.11 | 3.47 |
| ACTL9 (actin like 9) | SID160763299 | -0.579 | -1.1 | 2.93 |
